Data: doi:10.1101/2022.06.09.495453

Chains of the proteins cited; added tags and fusions are not shown. Lines headed by an entry give the natural chain unless they say otherwise; changes in a name come on top.
UniProt Q9UI95: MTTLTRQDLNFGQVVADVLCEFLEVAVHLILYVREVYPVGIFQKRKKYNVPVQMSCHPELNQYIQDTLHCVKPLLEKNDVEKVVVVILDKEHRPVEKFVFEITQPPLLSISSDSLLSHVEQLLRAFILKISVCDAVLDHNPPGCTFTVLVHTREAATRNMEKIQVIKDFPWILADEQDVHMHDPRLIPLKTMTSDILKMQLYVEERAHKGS

Assays:
[1] = biological target: T1, MBP-SHLD3^45-60 (human) (UniProt Q6ZNX1); experiment: pull-down
T1 sequence: DGSKLPLRPKRSPPVI

[2] = biological target: T2, GST-SHLD3^1-62 (human) (UniProt Q6ZNX1); experiment: SEC
T2 sequence: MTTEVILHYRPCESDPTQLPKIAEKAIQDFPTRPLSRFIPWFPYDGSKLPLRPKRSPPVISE

[3] = biological target: REV7^ΔN (human) (UniProt Q9UI95); experiment: SEC

binding [1]	binding [2]	binding [3]	Substance
no binding (tested: 2 μM)	no binding (tested: 5 μM)	binds	REV7^ΔC (from UniProt Q9UI95)
binds	binds	–	REV7^ΔN (from UniProt Q9UI95)

No constants are given. Whether binding was seen depends on the method and setting. Binding calls can cover weak binding; strength is not graded here. For some assays here: Tags and fused reporters may be left off the sequences shown.
